# Source: PMC11276024
# Chains of the proteins cited; added tags and fusions are not shown.
# UniProt P39081: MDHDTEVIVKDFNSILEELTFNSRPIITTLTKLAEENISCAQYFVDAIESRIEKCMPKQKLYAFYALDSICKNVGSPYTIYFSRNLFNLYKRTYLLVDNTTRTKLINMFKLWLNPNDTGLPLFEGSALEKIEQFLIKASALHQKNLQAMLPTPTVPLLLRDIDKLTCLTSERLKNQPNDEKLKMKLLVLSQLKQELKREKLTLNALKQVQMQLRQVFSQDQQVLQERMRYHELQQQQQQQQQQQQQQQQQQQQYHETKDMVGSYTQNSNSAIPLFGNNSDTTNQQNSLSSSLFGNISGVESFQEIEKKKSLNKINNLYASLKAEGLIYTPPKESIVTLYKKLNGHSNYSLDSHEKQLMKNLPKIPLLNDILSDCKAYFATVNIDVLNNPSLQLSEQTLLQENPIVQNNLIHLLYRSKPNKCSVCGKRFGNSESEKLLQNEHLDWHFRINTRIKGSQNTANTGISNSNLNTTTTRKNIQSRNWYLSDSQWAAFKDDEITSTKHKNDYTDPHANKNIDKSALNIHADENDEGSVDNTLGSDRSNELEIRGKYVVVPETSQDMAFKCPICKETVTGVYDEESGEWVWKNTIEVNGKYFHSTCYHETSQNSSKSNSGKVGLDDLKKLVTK
# T1: TFIIB sua7-1 mutant (TFIIB^sua7-1, E62K) (S. cerevisiae) (UniProt P29055)
# T1 sequence: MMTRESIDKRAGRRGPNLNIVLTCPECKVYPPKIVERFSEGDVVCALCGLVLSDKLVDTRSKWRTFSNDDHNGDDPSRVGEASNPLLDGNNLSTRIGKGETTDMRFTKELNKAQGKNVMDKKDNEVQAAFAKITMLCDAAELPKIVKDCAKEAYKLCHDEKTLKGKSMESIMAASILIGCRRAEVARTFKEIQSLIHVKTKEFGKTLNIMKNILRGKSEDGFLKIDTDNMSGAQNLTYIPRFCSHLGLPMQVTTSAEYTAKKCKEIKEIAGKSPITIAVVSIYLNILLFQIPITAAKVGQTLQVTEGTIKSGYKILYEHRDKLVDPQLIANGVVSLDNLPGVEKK
# B1: Clp1 (protein, UniProt Q08685 1-445)
# chain: MASLPGIDEHTTSEELITGDNEWHKLVIPKGSDWQIDLKAEGKLIVKVNSGIVEIFGTELAVDDEYTFQNWKFPIYAVEETELLWKCPDLTTNTITVKPNHTMKYIYNLHFMLEKIRMSNFEGPRVVIVGGSQTGKTSLSRTLCSYALKFNAYQPLYINLDPQQPIFTVPGCISATPISDILDAQLPTWGQSLTSGATLLHNKQPMVKNFGLERINENKDLYLECISQLGQVVGQRLHLDPQVRRSGCIVDTPSISQLDENLAELHHIIEKLNVNIMLVLCSETDPLWEKVKKTFGPELGNNNIFFIPKLDGVSAVDDVYKRSLQRTSIREYFYGSLDTALSPYAIGVDYEDLTIWKPSNVFDNEVGRVELFPVTITPSNLQHAIIAITFAERRADQATVIKSPILGFALITEVNEKRRKLRVLLPVPGRLPSKAMILTSYRYLE
# B2: Rna14 (protein, UniProt P25298 1-677)
# chain: MSSSTTPDLLYPSADKVAEPSDNIHGDELRLRERIKDNPTNILSYFQLIQYLETQESYAKVREVYEQFHNTFPFYSPAWTLQLKGELARDEFETVEKILAQCLSGKLENNDLSLWSTYLDYIRRKNNLITGGQEARAVIVKAFQLVMQKCAIFEPKSSSFWNEYLNFLEQWKPFNKWEEQQRIDMLREFYKKMLCVPFDNLEKMWNRYTQWEQEINSLTARKFIGELSAEYMKARSLYQEWLNVTNGLKRASPINLRTANKKNIPQPGTSDSNIQQLQIWLNWIKWERENKLMLSEDMLSQRISYVYKQGIQYMIFSAEMWYDYSMYISENSDRQNILYTALLANPDSPSLTFKLSECYELDNDSESVSNCFDKCTQTLLSQYKKIASDVNSGEDNNTEYEQELLYKQREKLTFVFCVYMNTMKRISGLSAARTVFGKCRKLKRILTHDVYVENAYLEFQNQNDYKTAFKVLELGLKYFQNDGVYINKYLDFLIFLNKDSQIKTLFETSVEKVQDLTQLKEIYKKMISYESKFGNLNNVYSLEKRFFERFPQENLIEVFTSRYQIQNSNLIKKLELTYMYNEEEDSYFSSGNGDGHHGSYNMSSSDRKRLMEETGNNGNFSNKKFKRDSELPTEVLDLLSVIPKRQYFNTNLLDAQKLVNFLNDQVEIPTVESTKSG
# B3: Rna15 (protein, UniProt P25299 1-296)
# chain: MNRQSGVNAGVQNNPPSRVVYLGSIPYDQTEEQILDLCSNVGPVINLKMMFDPQTGRSKGYAFIEFRDLESSASAVRNLNGYQLGSRFLKCGYSSNSDISGVSQQQQQQYNNINGNNNNNGNNNNNSNGPDFQNSGNANFLSQKFPELPSGIDVNINMTTPAMMISSELAKKPKEVQLKFLQKFQEWTRAHPEDAVSLLELCPQLSFVTAELLLTNGICKVDDLIPLASRPQEEASATNNNSVNEVVDPAVLNKQKELLKQVLQLNDSQISILPDDERMAIWDLKQKALRGEFGAF
# Target: T1, TFIIB sua7-1 mutant (TFIIB^sua7-1, E62K) (S. cerevisiae)
# Assay: affinity purification with mass spectrometry; TFIIB affinity purified from chromatin (and soluble) fractions of S. cerevisiae cells; purified fractions subjected to mass spectrometry; TFIIB-normalized spectral abundance factor (BNSAF); four replicates
row,Molecule,binding
1,Pcf11 (from UniProt P39081 1-626),binds
2,B1,binds
3,B2,binds
4,B3,binds

# These are yes or no findings as the source states them, for the method shown. In cells and extracts the contact can be indirect. A yes stands for co-enrichment or nearness to the bait. Other partners may have been found.
